Here are results for 51 targets from the supplement of paper PMC12595434, “Development of retinoid nuclear receptor pathway antagonists through targeting aldehyde dehydrogenase 1A3” (iScience, 2025).

Sequences of proteins named here, by UniProt entry; tags and fusion partners are left off. A change or cut given only in a name is not applied to a line headed by its entry.
UniProt Q9NUT2: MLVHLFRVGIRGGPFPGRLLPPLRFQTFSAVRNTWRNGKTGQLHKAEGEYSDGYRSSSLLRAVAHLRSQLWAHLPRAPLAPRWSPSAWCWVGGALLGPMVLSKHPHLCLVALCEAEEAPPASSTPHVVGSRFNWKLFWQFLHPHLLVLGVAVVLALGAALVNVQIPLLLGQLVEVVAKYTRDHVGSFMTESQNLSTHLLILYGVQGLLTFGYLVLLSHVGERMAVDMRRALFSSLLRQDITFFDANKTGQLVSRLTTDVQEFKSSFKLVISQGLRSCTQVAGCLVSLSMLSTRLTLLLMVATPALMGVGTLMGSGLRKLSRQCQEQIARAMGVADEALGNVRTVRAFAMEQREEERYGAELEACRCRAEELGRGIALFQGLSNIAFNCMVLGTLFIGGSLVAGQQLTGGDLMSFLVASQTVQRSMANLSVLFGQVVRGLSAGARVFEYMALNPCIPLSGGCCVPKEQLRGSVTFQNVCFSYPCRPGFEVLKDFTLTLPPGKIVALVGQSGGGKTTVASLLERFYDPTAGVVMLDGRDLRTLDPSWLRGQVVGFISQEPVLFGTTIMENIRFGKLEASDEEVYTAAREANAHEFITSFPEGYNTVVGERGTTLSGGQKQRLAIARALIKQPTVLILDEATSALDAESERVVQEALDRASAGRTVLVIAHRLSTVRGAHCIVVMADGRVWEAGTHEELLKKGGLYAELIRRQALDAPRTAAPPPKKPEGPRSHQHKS
UniProt Q9NV88, whole entry: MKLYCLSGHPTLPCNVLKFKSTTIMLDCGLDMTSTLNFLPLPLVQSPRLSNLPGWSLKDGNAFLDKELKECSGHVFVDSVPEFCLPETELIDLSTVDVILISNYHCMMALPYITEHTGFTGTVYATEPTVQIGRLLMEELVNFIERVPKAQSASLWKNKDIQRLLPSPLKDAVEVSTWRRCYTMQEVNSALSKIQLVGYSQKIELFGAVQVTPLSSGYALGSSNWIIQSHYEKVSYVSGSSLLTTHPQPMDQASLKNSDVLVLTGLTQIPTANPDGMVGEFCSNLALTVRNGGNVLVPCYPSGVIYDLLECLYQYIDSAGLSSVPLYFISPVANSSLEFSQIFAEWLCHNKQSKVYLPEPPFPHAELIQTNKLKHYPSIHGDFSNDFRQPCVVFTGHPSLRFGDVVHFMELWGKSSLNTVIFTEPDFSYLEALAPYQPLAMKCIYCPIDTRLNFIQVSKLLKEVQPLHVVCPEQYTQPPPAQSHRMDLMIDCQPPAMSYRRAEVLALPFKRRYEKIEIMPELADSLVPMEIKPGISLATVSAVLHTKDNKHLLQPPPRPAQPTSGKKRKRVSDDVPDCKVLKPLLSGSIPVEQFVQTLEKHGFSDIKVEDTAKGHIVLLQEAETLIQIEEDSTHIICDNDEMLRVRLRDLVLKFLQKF
UniProt Q9NS15: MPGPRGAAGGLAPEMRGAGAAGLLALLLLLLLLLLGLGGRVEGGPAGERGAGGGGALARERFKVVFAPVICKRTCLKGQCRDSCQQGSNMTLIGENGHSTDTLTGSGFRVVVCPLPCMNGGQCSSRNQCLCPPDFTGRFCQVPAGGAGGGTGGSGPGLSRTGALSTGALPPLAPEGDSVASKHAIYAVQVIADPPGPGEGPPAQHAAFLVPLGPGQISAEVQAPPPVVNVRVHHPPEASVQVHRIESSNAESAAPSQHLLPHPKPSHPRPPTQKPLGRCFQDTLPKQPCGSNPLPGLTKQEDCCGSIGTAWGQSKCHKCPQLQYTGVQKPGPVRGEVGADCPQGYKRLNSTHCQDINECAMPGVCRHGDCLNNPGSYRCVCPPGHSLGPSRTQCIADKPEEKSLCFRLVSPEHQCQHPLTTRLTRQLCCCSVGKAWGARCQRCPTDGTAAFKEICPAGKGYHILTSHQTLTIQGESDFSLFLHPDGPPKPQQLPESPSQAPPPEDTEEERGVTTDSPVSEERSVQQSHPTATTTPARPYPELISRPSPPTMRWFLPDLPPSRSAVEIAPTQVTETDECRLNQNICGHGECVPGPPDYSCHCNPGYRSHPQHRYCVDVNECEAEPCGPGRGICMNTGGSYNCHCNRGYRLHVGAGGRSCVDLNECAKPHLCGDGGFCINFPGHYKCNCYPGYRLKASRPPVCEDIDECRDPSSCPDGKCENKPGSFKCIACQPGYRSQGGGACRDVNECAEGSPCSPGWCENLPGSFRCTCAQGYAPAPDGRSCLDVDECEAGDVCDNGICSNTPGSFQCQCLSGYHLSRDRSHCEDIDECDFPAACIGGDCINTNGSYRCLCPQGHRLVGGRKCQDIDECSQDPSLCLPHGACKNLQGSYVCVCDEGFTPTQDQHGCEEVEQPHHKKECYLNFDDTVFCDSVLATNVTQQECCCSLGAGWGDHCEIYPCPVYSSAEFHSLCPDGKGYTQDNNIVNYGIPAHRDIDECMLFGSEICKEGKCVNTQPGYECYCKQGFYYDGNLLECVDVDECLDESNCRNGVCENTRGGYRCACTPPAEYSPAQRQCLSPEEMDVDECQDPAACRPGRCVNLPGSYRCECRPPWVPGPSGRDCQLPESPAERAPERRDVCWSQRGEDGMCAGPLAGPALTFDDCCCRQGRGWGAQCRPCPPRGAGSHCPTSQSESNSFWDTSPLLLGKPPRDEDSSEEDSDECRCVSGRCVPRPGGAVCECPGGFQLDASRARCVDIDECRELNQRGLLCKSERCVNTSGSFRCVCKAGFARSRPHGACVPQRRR
UniProt Q9NS73: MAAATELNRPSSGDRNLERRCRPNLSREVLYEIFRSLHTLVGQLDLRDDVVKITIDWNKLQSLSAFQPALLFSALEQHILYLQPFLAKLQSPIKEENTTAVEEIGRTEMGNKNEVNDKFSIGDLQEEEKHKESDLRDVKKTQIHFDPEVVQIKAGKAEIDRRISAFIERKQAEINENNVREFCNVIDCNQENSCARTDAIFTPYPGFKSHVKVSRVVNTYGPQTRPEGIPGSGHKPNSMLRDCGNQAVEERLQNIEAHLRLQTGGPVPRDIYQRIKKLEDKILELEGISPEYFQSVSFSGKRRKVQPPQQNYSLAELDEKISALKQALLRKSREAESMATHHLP
UniProt Q9HA77: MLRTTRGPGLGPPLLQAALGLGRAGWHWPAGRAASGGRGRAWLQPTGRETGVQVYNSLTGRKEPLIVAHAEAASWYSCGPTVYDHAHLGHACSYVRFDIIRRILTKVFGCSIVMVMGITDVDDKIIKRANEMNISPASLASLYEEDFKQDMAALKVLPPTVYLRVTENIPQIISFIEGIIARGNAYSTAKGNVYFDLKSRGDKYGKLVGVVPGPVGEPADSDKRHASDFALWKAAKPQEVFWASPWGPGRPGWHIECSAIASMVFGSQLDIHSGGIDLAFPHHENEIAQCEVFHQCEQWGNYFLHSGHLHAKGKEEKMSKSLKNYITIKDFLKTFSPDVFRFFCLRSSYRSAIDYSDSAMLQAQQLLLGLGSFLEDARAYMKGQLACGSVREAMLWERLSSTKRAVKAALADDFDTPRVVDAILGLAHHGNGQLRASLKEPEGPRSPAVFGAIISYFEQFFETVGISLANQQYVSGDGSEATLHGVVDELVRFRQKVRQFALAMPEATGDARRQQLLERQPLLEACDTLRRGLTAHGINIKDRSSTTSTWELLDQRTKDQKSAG
UniProt Q9NR45: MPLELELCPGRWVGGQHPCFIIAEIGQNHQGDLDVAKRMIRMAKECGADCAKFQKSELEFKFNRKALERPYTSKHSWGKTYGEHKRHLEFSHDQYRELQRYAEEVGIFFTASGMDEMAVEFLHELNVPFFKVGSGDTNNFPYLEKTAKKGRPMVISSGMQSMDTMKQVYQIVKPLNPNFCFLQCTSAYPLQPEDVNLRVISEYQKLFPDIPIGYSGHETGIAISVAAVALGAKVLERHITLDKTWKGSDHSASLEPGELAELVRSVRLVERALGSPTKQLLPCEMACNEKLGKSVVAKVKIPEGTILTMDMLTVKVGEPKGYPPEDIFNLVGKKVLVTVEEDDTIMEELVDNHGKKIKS
UniProt Q9HCK8: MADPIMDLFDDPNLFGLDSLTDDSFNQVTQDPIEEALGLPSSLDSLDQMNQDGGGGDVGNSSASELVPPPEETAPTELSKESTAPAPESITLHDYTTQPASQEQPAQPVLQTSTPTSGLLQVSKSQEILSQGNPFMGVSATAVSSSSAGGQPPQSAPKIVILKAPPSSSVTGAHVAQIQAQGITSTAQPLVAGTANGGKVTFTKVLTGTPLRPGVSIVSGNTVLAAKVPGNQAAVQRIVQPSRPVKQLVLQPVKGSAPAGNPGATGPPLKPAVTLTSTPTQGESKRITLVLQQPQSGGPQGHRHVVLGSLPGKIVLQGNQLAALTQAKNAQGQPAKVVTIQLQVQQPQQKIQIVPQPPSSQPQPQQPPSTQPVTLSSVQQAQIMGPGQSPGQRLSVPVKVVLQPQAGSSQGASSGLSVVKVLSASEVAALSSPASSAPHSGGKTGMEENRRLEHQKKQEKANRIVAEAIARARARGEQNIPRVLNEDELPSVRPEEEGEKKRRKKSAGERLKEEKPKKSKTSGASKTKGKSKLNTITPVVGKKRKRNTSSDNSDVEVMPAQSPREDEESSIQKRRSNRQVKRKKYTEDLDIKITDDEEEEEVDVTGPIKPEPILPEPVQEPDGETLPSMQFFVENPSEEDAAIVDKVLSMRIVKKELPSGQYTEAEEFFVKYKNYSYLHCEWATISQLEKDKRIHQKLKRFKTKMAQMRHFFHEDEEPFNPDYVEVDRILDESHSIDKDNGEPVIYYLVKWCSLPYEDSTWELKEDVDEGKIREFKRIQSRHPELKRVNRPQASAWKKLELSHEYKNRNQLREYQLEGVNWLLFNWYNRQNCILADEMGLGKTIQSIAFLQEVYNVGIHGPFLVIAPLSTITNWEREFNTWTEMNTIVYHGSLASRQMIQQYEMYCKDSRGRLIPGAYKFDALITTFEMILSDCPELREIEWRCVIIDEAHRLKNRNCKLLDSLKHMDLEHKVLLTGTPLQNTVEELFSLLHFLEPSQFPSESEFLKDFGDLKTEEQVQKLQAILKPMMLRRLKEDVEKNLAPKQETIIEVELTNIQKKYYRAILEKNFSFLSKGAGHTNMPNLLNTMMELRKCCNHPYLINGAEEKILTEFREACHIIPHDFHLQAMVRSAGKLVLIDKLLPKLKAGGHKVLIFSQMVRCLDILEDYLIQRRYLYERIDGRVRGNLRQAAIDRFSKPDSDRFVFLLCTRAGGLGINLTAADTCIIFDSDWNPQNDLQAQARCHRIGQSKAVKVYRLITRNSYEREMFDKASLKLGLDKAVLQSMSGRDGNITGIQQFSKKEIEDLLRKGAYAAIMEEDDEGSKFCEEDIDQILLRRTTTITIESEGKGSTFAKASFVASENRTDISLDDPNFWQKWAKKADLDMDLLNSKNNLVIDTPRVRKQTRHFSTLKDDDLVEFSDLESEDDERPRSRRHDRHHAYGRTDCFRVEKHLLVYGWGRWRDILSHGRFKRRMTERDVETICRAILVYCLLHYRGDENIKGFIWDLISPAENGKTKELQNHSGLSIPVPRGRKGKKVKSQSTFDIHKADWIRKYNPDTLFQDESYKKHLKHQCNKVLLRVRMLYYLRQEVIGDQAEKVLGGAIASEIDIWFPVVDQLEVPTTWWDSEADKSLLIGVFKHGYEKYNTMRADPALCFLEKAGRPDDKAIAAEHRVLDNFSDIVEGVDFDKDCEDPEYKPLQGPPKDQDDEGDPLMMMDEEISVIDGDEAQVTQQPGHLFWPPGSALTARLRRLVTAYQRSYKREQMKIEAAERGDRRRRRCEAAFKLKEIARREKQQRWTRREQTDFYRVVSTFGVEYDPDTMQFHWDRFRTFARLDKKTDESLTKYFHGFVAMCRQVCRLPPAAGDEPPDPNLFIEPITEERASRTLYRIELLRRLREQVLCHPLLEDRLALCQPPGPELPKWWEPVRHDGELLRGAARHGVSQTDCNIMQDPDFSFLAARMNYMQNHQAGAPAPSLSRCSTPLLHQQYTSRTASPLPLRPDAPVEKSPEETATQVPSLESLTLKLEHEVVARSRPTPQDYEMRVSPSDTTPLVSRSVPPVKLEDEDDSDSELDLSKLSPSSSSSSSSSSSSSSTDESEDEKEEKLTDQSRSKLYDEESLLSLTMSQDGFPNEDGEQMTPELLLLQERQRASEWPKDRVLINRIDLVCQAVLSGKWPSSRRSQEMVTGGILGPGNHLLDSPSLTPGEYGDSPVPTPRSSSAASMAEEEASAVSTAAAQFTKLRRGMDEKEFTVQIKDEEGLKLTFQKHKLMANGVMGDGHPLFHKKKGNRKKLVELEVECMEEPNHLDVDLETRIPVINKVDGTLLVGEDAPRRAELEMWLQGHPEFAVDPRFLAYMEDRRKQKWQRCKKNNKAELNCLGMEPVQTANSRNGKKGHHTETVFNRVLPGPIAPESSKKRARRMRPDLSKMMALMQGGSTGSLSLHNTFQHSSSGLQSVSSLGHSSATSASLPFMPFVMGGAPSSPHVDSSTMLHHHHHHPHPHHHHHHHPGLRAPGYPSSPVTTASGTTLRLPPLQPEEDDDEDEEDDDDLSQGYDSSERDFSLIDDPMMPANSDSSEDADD

Compound in this test: CCc1cnccc1C(=O)Nc1cc2c(cc1F)NC(=O)CC2
The test is described as follows: melting temperature shift (DMSO Tm minus MBE1-treated Tm) in cellular thermal proteome profiling; higher = less thermal stabilization by MBE1 (negative = stabilized by MBE1). The note with it: A375.

Some of the results follow. The data scatter; read single values as rough.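 Tm was set to 64 °C where no melting was found, and many curves are irregular.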

Consider C1GALT1 (UniProt Q9NS00), for which the melting temperature shift was -0.637 °C (MBE1 concentration: 100 nM) and -0.148 °C (MBE1 concentration: 1 uM).
With XPNPEP1 (UniProt Q9NQW7), the melting temperature shift runs as follows: (MBE1 concentration: 100 nM) 0.0672 °C; (MBE1 concentration: 1 uM) 0.336 °C.
On the same counts, the results for ABCB8 (UniProt Q9NUT2) are -0.581 °C and 0.171 °C.
Regarding ANLN (UniProt Q9NQW6), the melting temperature shift by setting is: (MBE1 concentration: 100 nM) -0.551 °C; (MBE1 concentration: 1 uM) 0.0513 °C.
Turning to NMNAT1 (UniProt Q9HAN9), the melting temperature shift runs as follows: (MBE1 concentration: 100 nM) -1.67 °C; (MBE1 concentration: 1 uM) 1.98 °C.
The matching figures for UniProt Q9NQ11: -1.86 °C and 1.15 °C.
On the same counts, the results for UniProt Q9NSG2 are -0.583 °C and -0.378 °C.
For the target UBQLN4 (UniProt Q9NRR5), the melting temperature shift (MBE1 concentration: 100 nM) was -2.18 °C and the melting temperature shift (MBE1 concentration: 1 uM) is -3.15 °C.
On the same counts, the results for UniProt Q9NV88 are 0.121 °C and 0.216 °C.
With ECHDC1 (UniProt Q9NTX5), the melting temperature shift by setting is: (MBE1 concentration: 100 nM) -3.39 °C; (MBE1 concentration: 1 uM) -2.54 °C.
The matching figures for UniProt Q9HBF4: -0.137 °C and -0.473 °C.
Regarding STAU2 (UniProt Q9NUL3), the melting temperature shift was -0.157 °C (MBE1 concentration: 100 nM) and 7.6 °C (MBE1 concentration: 1 uM).
The matching figures for UniProt Q9NS15: -0.402 °C and -1.95 °C.
Consider UniProt Q9HCM4, for which the melting temperature shift came to 2.12 °C (MBE1 concentration: 100 nM) and 1.03 °C (MBE1 concentration: 1 uM).
Turning to SPC25 (UniProt Q9HBM1), the melting temperature shift reads like this: (MBE1 concentration: 100 nM) 0.861 °C; (MBE1 concentration: 1 uM) -0.342 °C.
Consider PARVB (UniProt Q9HBI1), for which the melting temperature shift is 0.666 °C (MBE1 concentration: 100 nM) and 0.354 °C (MBE1 concentration: 1 uM).
On to RDH14 (UniProt Q9HBH5), for which the melting temperature shift (MBE1 concentration: 100 nM) came out at 0.427 °C and the melting temperature shift (MBE1 concentration: 1 uM) was found to be 0.287 °C.
The matching figures for NMRAL1 (UniProt Q9HBL8): 0.171 °C and 0.574 °C.
Regarding ZNF277 (UniProt Q9NRM2), the melting temperature shift reads like this: (MBE1 concentration: 100 nM) -3.08 °C; (MBE1 concentration: 1 uM) 3.07 °C.
On the same counts, the results for RTN4 (UniProt Q9NQC3) are -2.49 °C and -0.744 °C.
On to HEBP1 (UniProt Q9NRV9), for which the melting temperature shift by setting is: (MBE1 concentration: 100 nM) -0.754 °C; (MBE1 concentration: 1 uM) 0.843 °C.
On the same counts, the results for SNRK (UniProt Q9NRH2) are 0.635 °C and -1.02 °C.
On the same counts, the results for C17ORF75 (UniProt Q9HAS0) are -0.359 °C and 0.482 °C.
On the same counts, the results for UniProt Q9HCK5 are -0.55 °C and -3.25 °C.
As to UniProt Q9H9G7, the melting temperature shift is, setting by setting: (MBE1 concentration: 100 nM) -0.971 °C; (MBE1 concentration: 1 uM) -3.19 °C.
For UniProt Q9H910, the melting temperature shift is 2.41 °C (MBE1 concentration: 100 nM) and 5.57 °C (MBE1 concentration: 1 uM).
For the target PDF (UniProt Q9HBH1), the melting temperature shift (MBE1 concentration: 100 nM) is -1.17 °C and the melting temperature shift (MBE1 concentration: 1 uM) was -0.647 °C.
In the case of UniProt Q9NS73, the melting temperature shift reads like this: (MBE1 concentration: 100 nM) -1.59 °C; (MBE1 concentration: 1 uM) -4.58 °C.
In the case of CARS2 (UniProt Q9HA77), the melting temperature shift is -0.525 °C (MBE1 concentration: 100 nM) and -0.14 °C (MBE1 concentration: 1 uM).
On the same counts, the results for TXNRD2 (UniProt Q9NNW7) are -2.32 °C and -0.972 °C.
On the same counts, the results for SARS2 (UniProt Q9NP81) are 0.476 °C and 0.0794 °C.
Turning to L2HGDH (UniProt Q9H9P8), the melting temperature shift (MBE1 concentration: 100 nM) is -1.7 °C and the melting temperature shift (MBE1 concentration: 1 uM) amounted to 0.241 °C.
On to APOBEC3C (UniProt Q9NRW3), for which the melting temperature shift by setting is: (MBE1 concentration: 100 nM) -0.104 °C; (MBE1 concentration: 1 uM) 0.483 °C.
Regarding EIF4ENIF1 (UniProt Q9NRA8), the melting temperature shift is 0.674 °C (MBE1 concentration: 100 nM) and -0.83 °C (MBE1 concentration: 1 uM).
On the same counts, the results for VTA1 (UniProt Q9NP79) are 0.189 °C and -0.311 °C.
The matching figures for TCP11L1 (UniProt Q9NUJ3): 0.207 °C and 0.141 °C.
Turning to SCPEP1 (UniProt Q9HB40), the melting temperature shift by setting is: (MBE1 concentration: 100 nM) -0.835 °C; (MBE1 concentration: 1 uM) -1.32 °C.
The matching figures for CYLD (UniProt Q9NQC7): -1.68 °C and -0.452 °C.
On the same counts, the results for UniProt Q9NUB1 are 0.543 °C and 0.275 °C.
The matching figures for NANS (UniProt Q9NR45): -0.413 °C and 0.427 °C.
On to VIPAS39 (UniProt Q9H9C1), for which the melting temperature shift (MBE1 concentration: 100 nM) is -0.616 °C and the melting temperature shift (MBE1 concentration: 1 uM) was -1.09 °C.
Regarding JPH1 (UniProt Q9HDC5), the melting temperature shift reads like this: (MBE1 concentration: 100 nM) 0.586 °C; (MBE1 concentration: 1 uM) 0.14 °C.
Turning to DDX21 (UniProt Q9NR30), the melting temperature shift (MBE1 concentration: 100 nM) was -0.668 °C and the melting temperature shift (MBE1 concentration: 1 uM) is -0.372 °C.
Regarding CHD8 (UniProt Q9HCK8), the melting temperature shift (MBE1 concentration: 100 nM) was -0.442 °C and the melting temperature shift (MBE1 concentration: 1 uM) was -0.256 °C.
Consider DMAP1 (UniProt Q9NPF5), for which the melting temperature shift by setting is: (MBE1 concentration: 100 nM) -0.416 °C; (MBE1 concentration: 1 uM) -0.788 °C.
On the same counts, the results for MRM3 (UniProt Q9HC36) are -0.99 °C and 0.525 °C.
The matching figures for UniProt Q9NRF2: -2.23 °C and -0.109 °C.
On the same counts, the results for TOMM22 (UniProt Q9NS69) are -2.67 °C and -0.0183 °C.
Consider CTPS2 (UniProt Q9NRF8), for which the melting temperature shift is -0.951 °C (MBE1 concentration: 100 nM) and -0.0827 °C (MBE1 concentration: 1 uM).
As for UniProt Q9HD47, the melting temperature shift runs as follows: (MBE1 concentration: 100 nM) -1.88 °C; (MBE1 concentration: 1 uM) 0.0794 °C.
On the same counts, the results for PPCS (UniProt Q9HAB8) are -0.503 °C and -0.349 °C.
